Measurements as given in patent publication US20040053329A1 (published 2004).
No constants are given. Whether binding was seen depends on the method and setting. Some entries that bind do so weakly or less than the wild type.

Target: T1, human endoglin (CD105), purified (human) (UniProt P17813)
T1 sequence (looked up): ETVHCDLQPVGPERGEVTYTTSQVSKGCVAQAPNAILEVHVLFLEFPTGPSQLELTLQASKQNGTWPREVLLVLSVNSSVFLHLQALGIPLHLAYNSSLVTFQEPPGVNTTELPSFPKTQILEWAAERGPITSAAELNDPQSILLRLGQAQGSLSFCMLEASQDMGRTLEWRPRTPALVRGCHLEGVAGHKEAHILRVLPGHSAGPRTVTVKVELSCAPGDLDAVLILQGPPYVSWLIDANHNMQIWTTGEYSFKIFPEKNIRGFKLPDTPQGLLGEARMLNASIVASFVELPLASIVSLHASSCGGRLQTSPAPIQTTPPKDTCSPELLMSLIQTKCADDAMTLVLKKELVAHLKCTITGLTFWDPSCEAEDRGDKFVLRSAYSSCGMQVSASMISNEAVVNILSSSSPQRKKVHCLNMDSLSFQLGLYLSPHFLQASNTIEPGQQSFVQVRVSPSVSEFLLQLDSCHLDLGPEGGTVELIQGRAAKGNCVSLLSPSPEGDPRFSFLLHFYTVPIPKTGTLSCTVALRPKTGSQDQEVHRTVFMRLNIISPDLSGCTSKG
Test: ELISA, plate coated with human endoglin at 10 µg/ml, scFv at 50 µg/ml-5 ng/ml, anti-Myc peroxidase detection

B1: scFv C4 (anti-endoglin polypeptide C4 in the form of an scFv fragment) (scFv, not shown: small tags and cut ends)
scFv: AQVQLVQSGAEVKKPGATVKISCKVSGYTFTDYYMHWVQQAPGKGLEWMGLVDPEDGETIYAEKFQGRVTITADTSTDTAYMELSSLRSEDTAVYYCARRTTHGPDPHWGQGTLVTVSSGGGGSGGGGSGGSALDIQLTQSPSSLSASVGDRVTITCRASQSISSYLNWYQRKPGKAPKLLIYAASSLQSGVPSRFSGSGSGTDFTLTISSLQPEDFATYYCQQSYSTRTFGQGTKLEIKR
notes: also called polypeptide scFv C4; anti-endoglin-antibody
binding: binds
